Test results: US20090318424A1, “NOVEL COMPOUNDS” (priority 2006, published 2009)
Structures can show the parent of a compound that is named as a salt. For some of these results: For at least one compound, name, drawing or mass did not settle the structure. Some results were stated once for a whole list of compounds, not compound by compound.

Amino acid sequences for entries named in this document (tags omitted).
UniProt Q16539, whole entry: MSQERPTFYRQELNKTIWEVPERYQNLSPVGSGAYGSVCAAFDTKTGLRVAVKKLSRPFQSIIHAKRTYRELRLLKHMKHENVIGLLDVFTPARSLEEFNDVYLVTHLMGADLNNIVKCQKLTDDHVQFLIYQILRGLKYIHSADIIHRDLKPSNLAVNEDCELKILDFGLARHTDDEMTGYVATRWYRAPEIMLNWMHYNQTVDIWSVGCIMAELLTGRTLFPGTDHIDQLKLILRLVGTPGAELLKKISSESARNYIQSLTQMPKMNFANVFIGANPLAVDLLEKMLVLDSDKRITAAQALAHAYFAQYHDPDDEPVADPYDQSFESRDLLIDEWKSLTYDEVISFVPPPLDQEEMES

Columns and labels:
[1] = tested on: influx of neutrophils to the lung in LPS-challenged rats; test: Rat LPS neutrophilia model; type: in vivo; conditions: LPS aerosol 100 ug/ml 15 min, lavage 4 hours later; in at least one of the range of conditions tested
Description: The effect of compounds on the influx of neutrophils to the lung in LPS-challenged rats is evaluated as follows. The test compound is suspended in one of the following solutions: 0.5% tween 80/PBS, 0.5% tween 80/saline, 10% EtOH/saline (with pH adjusted to 2.0, or 8.0 with HCl, or unadjusted), Saline @ pH 2.0, 6.5 or 8.0, 0.5% Tragacanth, 1% DMSO/20% Encapsin/Saline, or acidified 5% Tragacanth. The suspension process may be aided by the use of a glass homogenizer. For intratracheal administration, the animals are anesthetized with inhaled isoflurane and placed in a supine position, the trachea is intubated with a steel gavage needle (1.5 inch, 22 gauge, small ball) or a Penn-Century Microsprayer Aerosolizer (model IA-IB) and 200 ul of dosing solution is delivered. The animals are visually monitored during the recovery process, which typically occurs within two minutes.
Rats treated with compound or vehicle (15 min-24 hours pretreatment) are exposed to an LPS aerosol (100 ug/ml) for 15 min. Four hours later the rats are euthanized with pentobarbital (100 mg/kg, i.p.) and the airways are lavaged with 5 washes of 5 ml of phosphate buffered saline. The harvested cells are stained (Diffquick) and counted to determine total and differential cell data. […] Inhibition of neutrophil levels relative to no compound controls is calculated based on the differential counts. […]

Recombinant human p38α [2] = target: T1, Recombinant human p38α (Homo sapiens, UniProt Q16539); test: Time-resolved fluorescence resonance energy transfer (TR-FRET) kinase assay (standard or low volume); type: biochemical; conditions: MKK6-activated p38α 100 pM, ATP 125 μM, GST-ATF2 substrate
T1 construct: GST; made in house

Recombinant human p38α [3] = target: T1, Recombinant human p38α; test: Fluorescence anisotropy kinase binding assay (standard or low volume); conditions: 12 nM p38α, 5 nM fluorescent ligand

| Compound | inhibition of neutrophilia [1] | pIC50, stated as found active (Recombinant human p38α [2]) | pIC50, stated as active (Recombinant human p38α [3]) |
| --- | --- | --- | --- |
| Cc1ccc(C(=O)NC(C)C)cc1-c1nc(N2CCC(N3CCOCC3)CC2)nc2c1CNC(=O)N2c1c(F)cccc1F [Example 71, 3-{8-(2,6-difluorophenyl)-2-[4-(4-morpholinyl)-1-piperidinyl]-7-oxo-5,6,7,8-tetrahydropyrimido[4,5-d]pyrimidin-4-yl}-4-methyl-N-(1-methylethyl)benzamide] | statistically significant inhibition |  |  |
| CCc1ccc(C(=O)Nc2nccs2)cc1-c1nc(NCCN(C)C)nc2c1CNC(=O)N2c1c(F)cccc1F [Example 144, 3-(8-(2,6-difluorophenyl)-2-{[2-(dimethylamino)ethyl]amino}-7-oxo-5,6,7,8-tetrahydropyrimido[4,5-d]pyrimidin-4-yl)-4-ethyl-N-1,3-thiazol-2-ylbenzamide Trilfluoroacetate] |  | active | active |
| Cc1ccc(C(=O)Nc2ccc(-c3ccccc3)cc2)cc1-c1nc(NCCN(C)C)nc2c1CNC(=O)N2c1c(F)cccc1F [Example 150, N-4-biphenylyl-3-(8-(2,6-difluorophenyl)-2-{[2-(dimethylamino)ethyl]amino}-7-oxo-5,6,7,8-tetrahydropyrimido[4,5-d]pyrimidin-4-yl)-4-methylbenzamide Trifluoroacetate] |  | active | active |
| CCOc1ccc(NC(=O)c2ccc(C)c(-c3nc(NCCN(C)C)nc4c3CNC(=O)N4c3c(F)cccc3F)c2)cc1 [Example 157, 3-(8-(2,6-difluorophenyl)-2-{[2-(dimethylamino)ethyl]amino}-7-oxo-5,6,7,8-tetrahydropyrimido[4,5-d]pyrimidin-4-yl)-N-[4-(ethyloxy)phenyl]-4-methylbenzamide trifluoroacetate] |  | active | active |
| COc1ccc(NC(=O)c2ccc(C)c(-c3nc(NCCN(C)C)nc4c3CNC(=O)N4c3c(F)cccc3F)c2)cc1 [Example 158, 3-(8-(2,6-difluorophenyl)-2-{[2-(dimethylamino)ethyl]amino}-7-oxo-5,6,7,8-tetrahydropyrimido[4,5-d]pyrimidin-4-yl)-4-methyl-N-[4-(methyloxy)phenyl]benzamide Trifluoroacetate] |  | active | active |
| Cc1cccc(NC(=O)c2ccc(C)c(-c3nc(NCCN(C)C)nc4c3CNC(=O)N4c3c(F)cccc3F)c2)c1 [Example 164, 3-(8-(2,6-difluorophenyl)-2-{[2-(dimethylamino)ethyl]amino}-7-oxo-5,6,7,8-tetrahydropyrimido[4,5-d]pyrimidin-4-yl)-4-methyl-N-(3-methylphenyl)benzamide Trifluoroacetate] |  | active | active |
| COCCNc1nc(-c2cc(C(=O)NC(C)C)ccc2C)c2c(n1)N(c1c(F)cccc1F)C(=O)NC2 [Example 178, 3-(8-(2,6-difluorophenyl)-2-{[2-(methyloxy)ethyl]amino}-7-oxo-5,6,7,8-tetrahydropyrimido[4,5-d]pyrimidin-4-yl)-4-methyl-N-(1-methylethyl)benzamide Trifluoroacetate] |  | active | active |
| Cc1ccc(C(=O)NC(C)C)cc1-c1nc(NCCN(C(C)C)C(C)C)nc2c1CNC(=O)N2c1c(F)cccc1F [Example 191, 3-[2-({2-[bis(1-methylethyl)amino]ethyl}amino)-8-(2,6-difluorophenyl)-7-oxo-5,6,7,8-tetrahydropyrimido[4,5-d]pyrimidin-4-yl]-4-methyl-N-(1-methylethyl)benzamide Trifluoroacetate] |  | active | active |
| Cc1ccc(C(=O)Nc2ccncc2)cc1-c1nc(NCCN(C)C)nc2c1CNC(=O)N2c1c(F)cccc1F [Example 193, 3-(8-(2,6-difluorophenyl)-2-{[2-(dimethylamino)ethyl]amino}-7-oxo-5,6,7,8-tetrahydropyrimido[4,5-d]pyrimidin-4-yl)-4-methyl-N-4-pyridinylbenzamide] |  | active | active |
| Cc1ccc(C(=O)Nc2ccc(C#N)cc2)cc1-c1nc(NCCN(C)C)nc2c1CNC(=O)N2c1c(F)cccc1F [Example 205, N-(4-cyanophenyl)-3-(8-(2,6-difluorophenyl)-2-{[2-(dimethylamino)ethyl]amino}-7-oxo-5,6,7,8-tetrahydropyrimido[4,5-d]pyrimidin-4-yl)-4-methylbenzamide] |  | active | active |
| Cc1ccc(C(=O)Nc2cccc(C(N)=O)c2)cc1-c1nc(NCCN(C)C)nc2c1CNC(=O)N2c1c(F)cccc1F [Example 211, N-[3-(aminocarbonyl)phenyl]-3-(8-(2,6-difluorophenyl)-2-{[2-(dimethylamino)ethyl]amino}-7-oxo-5,6,7,8-tetrahydropyrimido[4,5-d]pyrimidin-4-yl)-4-methylbenzamide] |  | active | active |
| Cc1ccccc1NC(=O)c1ccc(C)c(-c2nc(NCCN(C)C)nc3c2CNC(=O)N3c2c(F)cccc2F)c1 [Example 213, 3-(8-(2,6-difluorophenyl)-2-{[2-(dimethylamino)ethyl]amino}-7-oxo-5,6,7,8-tetrahydropyrimido[4,5-d]pyrimidin-4-yl)-4-methyl-N-(2-methylphenyl)benzamide] |  | active | active |
| Cc1ccc(C(=O)Nc2cccc(Cl)c2)cc1-c1nc(NCCN(C)C)nc2c1CNC(=O)N2c1c(F)cccc1F [Example 216, N-(3-chlorophenyl)-3-(8-(2,6-difluorophenyl)-2-{[2-(dimethylamino)ethyl]amino}-7-oxo-5,6,7,8-tetrahydropyrimido[4,5-d]pyrimidin-4-yl)-4-methylbenzamide] |  | active | active |
| Cc1ccc(C(=O)Nc2ccc(Cl)cc2)cc1-c1nc(NCCN(C)C)nc2c1CNC(=O)N2c1c(F)cccc1F [Example 218, N-(4-chlorophenyl)-3-(8-(2,6-difluorophenyl)-2-{[2-(dimethylamino)ethyl]amino}-7-oxo-5,6,7,8-tetrahydropyrimido[4,5-d]pyrimidin-4-yl)-4-methylbenzamide] |  | active | active |
| Cc1ccc(C(=O)Nc2ccc(N(C)C)cc2)cc1-c1nc(NCCN(C)C)nc2c1CNC(=O)N2c1c(F)cccc1F [Example 219, 3-(8-(2,6-difluorophenyl)-2-{[2-(dimethylamino)ethyl]amino}-7-oxo-5,6,7,8-tetrahydropyrimido[4,5-d]pyrimidin-4-yl)-N-[4-(dimethylamino)phenyl]-4-methylbenzamide] |  | active | active |
| Cc1ccc(C(=O)Nc2ccc(C(F)(F)F)cc2)cc1-c1nc(NCCN(C)C)nc2c1CNC(=O)N2c1c(F)cccc1F [Example 220, 3-(8-(2,6-difluorophenyl)-2-{[2-(dimethylamino)ethyl]amino}-7-oxo-5,6,7,8-tetrahydropyrimido[4,5-d]pyrimidin-4-yl)-4-methyl-N-[4-(trifluoromethyl)phenyl]benzamide] |  | active | active |
